# The list shows only some results of the screen, not a fair sample: its compounds were picked by chemical class. Not every dose and run of a compound is shown. T/C gives the treated animals as a percentage of the vehicle group. Some doses have a count of surviving animals in place of a T/C: the source files T/C as zero there, which appears to mark a toxic dose or a test without result, not a measured value. Some doses without a T/C left all or most animals alive at the check, yet need not have been tolerated: the source hardly ever lists a survival T/C far under the control, and the zero likely stands for such cases as well. Counts of survivors are from the toxicity check (mostly the fifth day) where no day follows; animals may have died later. Schedule codes are those of the source, read here as Q, the interval in days (D) or hours (H), X, the number of doses. Some schedules carry Z or #; the key to these is not given. Some entries hold several experiments; the values are given in rising order. Where survival is the endpoint, this PubChem deposit counts one and a half times the control or more as active, and values a quarter to a half above the control carry no call in these data; other NCI protocols may use other cut-offs.
# Test system: BDF1 mice, L1210/MTX-resistant leukemia ip, survival T/C
# Assay: NCI In Vivo Anticancer Drug Screen. Data for tumor model L1210 Leukemia resistant to Methotrexate; NSC 740 (intraperitoneal) in B6D2F1 (BDF1) mice
# Conditions: T/C endpoint: mean survival time, higher T/C = longer survival
# Protocol: The antitumor activity of compounds was measured in mice bearing transplantable tumors. Survival or tumor size were measured and the results are expressed as the measurement made in the treated group (T) divided by the measurement made in the vehicle treated control group (C). The tumor model used in this assay is L1210 Leukemia resistant to Methotrexate; NSC 740 (intraperitoneal) in B6D2F1 (BDF1) mice
SMILES,"T/C (dose: 8.0 mg/kg/injection, schedule: Q01DX010 (ip), vehicle: saline)","T/C (dose: 16.0 mg/kg/injection, schedule: Q01DX010 (ip), vehicle: saline)","survivor count (dose: 32.0 mg/kg/injection, schedule: Q01DX010 (ip), vehicle: saline)","survivor count (dose: 64.0 mg/kg/injection, schedule: Q01DX010 (ip), vehicle: saline)","T/C (dose: 0.5 mg/kg/injection, schedule: Q01DX010 (ip), vehicle: saline)","T/C (dose: 0.5 mg/kg/injection, schedule: Q01DX Z (ip), vehicle: carboxymethylcellulose (CMC))","T/C (dose: 1.0 mg/kg/injection, schedule: Q01DX010 (ip), vehicle: saline)","T/C (dose: 1.0 mg/kg/injection, schedule: Q01DX Z (ip), vehicle: carboxymethylcellulose (CMC))","T/C (dose: 2.0 mg/kg/injection, schedule: Q01DX010 (ip), vehicle: saline)","T/C (dose: 2.0 mg/kg/injection, schedule: Q01DX Z (ip), vehicle: carboxymethylcellulose (CMC))","T/C (dose: 4.0 mg/kg/injection, schedule: Q01DX010 (ip), vehicle: saline)","survivor count (dose: 4.0 mg/kg/injection, schedule: Q01DX Z (ip), vehicle: carboxymethylcellulose (CMC))"
CN(N=O)C(=N)N[N+](=O)[O-],105 and 120 % of control,99 and 134 % of control,6 of 6,2 of 6 and 5 of 6,,,,,,,,
Cc1[nH]c(=O)[nH]c(=O)c1N(CCCl)CCCl,,,,,115 % of control,110 % of control,125 % of control,92 % of control,117 % of control,89 % of control,98 % of control,5 of 6

# From PubChem BioAssay AID284 (DTP/NCI, 2004)
